These are yes or no findings as the source states them, for the method shown. Binding seen in cells or lysates may run through a third protein. A result given as binding can be weak or reduced; the word gives no strength. Where a sequence is shown, tags or fusion partners need not be part of it.
Molecular target: T1, Myc-FIGNL1 (human) (UniProt Q6PIW4)
T1 sequence: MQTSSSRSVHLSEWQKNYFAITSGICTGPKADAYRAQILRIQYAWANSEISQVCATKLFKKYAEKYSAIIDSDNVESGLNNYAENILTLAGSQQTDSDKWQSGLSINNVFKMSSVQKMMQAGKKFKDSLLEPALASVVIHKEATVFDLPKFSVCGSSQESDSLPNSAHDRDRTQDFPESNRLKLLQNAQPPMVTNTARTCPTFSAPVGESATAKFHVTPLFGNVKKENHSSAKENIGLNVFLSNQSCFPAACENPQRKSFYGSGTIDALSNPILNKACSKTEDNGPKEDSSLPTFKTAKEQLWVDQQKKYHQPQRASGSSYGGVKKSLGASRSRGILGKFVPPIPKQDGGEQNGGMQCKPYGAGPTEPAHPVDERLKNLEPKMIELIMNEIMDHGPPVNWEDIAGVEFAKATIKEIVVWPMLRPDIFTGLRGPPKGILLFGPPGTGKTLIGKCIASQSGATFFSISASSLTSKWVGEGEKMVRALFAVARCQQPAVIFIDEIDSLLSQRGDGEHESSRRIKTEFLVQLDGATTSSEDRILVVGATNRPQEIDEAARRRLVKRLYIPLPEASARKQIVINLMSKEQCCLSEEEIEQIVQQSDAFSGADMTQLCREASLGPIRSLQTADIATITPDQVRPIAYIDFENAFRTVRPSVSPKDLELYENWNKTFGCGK
Assay: co-IP; Myc-FIGNL1 and FLAG-SWSAP1 (or mutants) co-expressed in 293T, 72 h; benzonase-treated extract; anti-Myc beads 2 h at 4 °C; washes with 150 mM NaCl, 0.25% NP-40; immunoblot

binding	Substance
binds	FLAG-SWSAP1-D4N (residues 169–193 deleted) (human)
binds	FLAG-SWSAP1-D4C (residues 194–229 deleted) (human) (domain or fragment)
binds	FLAG-SWSAP1-EE (F23E, A26E) (human)

Source: PMC6440994, “Human RAD51 paralogue SWSAP1 fosters RAD51 filament by regulating the anti-recombinase FIGNL1 AAA+ ATPase” (Nature Communications, 2019)
